Measurements reported in article PMC3154933, “The Nucleotide Exchange Factor Ric-8A Is a Chaperone for the Conformationally Dynamic Nucleotide-Free State of Gαi1” (PLoS ONE, 2011).
No constants are given. Whether binding was seen depends on the method and setting. Some binding calls cover weakened binding; strength is not graded here.

The chains behind the UniProt entries cited, without tags or fusion partners. Where a name states a change or a piece, a line headed by the entry shows the natural chain unless it says otherwise.
UniProt P10824: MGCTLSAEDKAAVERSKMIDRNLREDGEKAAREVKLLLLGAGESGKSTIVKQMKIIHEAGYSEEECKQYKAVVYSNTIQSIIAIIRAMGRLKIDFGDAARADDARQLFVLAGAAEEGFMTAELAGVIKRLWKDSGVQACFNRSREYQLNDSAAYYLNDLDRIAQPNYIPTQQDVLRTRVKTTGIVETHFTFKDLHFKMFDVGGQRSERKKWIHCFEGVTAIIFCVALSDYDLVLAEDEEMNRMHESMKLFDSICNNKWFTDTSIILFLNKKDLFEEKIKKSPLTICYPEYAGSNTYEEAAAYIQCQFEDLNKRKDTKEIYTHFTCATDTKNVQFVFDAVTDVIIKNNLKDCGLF

Legend:
[1] = biological target: T1, Ric-8AΔC492 (rat Ric-8A residues 1–492) (rat) (UniProt Q80ZG1); assay: differential scanning calorimetry; 25 mM PIPES pH 7.2, 150 mM NaCl, 1 mM TCEP; 5.1 µM complex; 1°C/min from 20 to 70°C; both purified
T1 sequence: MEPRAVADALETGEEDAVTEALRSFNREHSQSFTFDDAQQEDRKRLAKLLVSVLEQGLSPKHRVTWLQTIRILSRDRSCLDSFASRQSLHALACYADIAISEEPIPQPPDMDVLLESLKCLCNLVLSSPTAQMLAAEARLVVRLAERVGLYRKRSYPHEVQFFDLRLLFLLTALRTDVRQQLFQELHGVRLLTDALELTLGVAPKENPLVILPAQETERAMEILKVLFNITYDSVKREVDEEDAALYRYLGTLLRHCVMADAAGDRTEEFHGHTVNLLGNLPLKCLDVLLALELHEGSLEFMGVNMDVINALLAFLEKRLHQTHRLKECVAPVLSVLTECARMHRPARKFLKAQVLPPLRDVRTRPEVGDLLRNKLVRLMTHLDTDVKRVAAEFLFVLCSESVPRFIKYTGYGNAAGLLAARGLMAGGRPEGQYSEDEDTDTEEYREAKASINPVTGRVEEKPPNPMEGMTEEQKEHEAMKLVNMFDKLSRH

[2] = biological target: T1, Ric-8AΔC492 (rat Ric-8A residues 1–492) (rat); assay: 1H-15N TROSY-HSQC NMR of the complex; [15N]Gαi1:Ric-8A against [15N]Gαi1•GDP, 250 µM, 20 mM sodium phosphate pH 6.8, 75 mM NaCl, 2 mM DTT, 25°C; both purified
[3] = biological target: T1, Ric-8AΔC492 (rat Ric-8A residues 1–492) (rat); assay: HDX-MS; whole-protein exchange; ten-fold dilution of 1 mg/ml Gαi1•GDP or Ric-8A:Gαi1[ ] into D2O, 20 mM sodium phosphate pH 6.8, 100 mM NaCl, 1 mM DTT; ESI-TOF; both purified
[4] = biological target: T1, Ric-8AΔC492 (rat Ric-8A residues 1–492) (rat); assay: limited proteolysis (trypsin protection); 50 µM samples, TPCK-trypsin at a 1:1000 molar ratio, 4°C, 50 mM Tris-HCl pH 8.0, 150 mM NaCl, 2 mM DTT; SDS-PAGE and mass spectrometry; both purified
[5] = biological target: T1, Ric-8AΔC492 (rat Ric-8A residues 1–492) (rat); assay: SEC; gel filtration of the NMR sample after data collection (data not shown); complex prepared from equimolar proteins with immobilised alkaline phosphatase and run on tandem Superdex 200/75 in 20 mM Tris pH 8.0, 150 mM NaCl, 2 mM DTT; both purified

Measured: binding

W258A-Gαi1 (non-myristoylated rat Gαi1, Trp 258 to Ala) (from UniProt P10824 1-354)
binds: all assays above
